Reference: article PMC8632689
No constants are given. Whether binding was seen depends on the method and setting. In cells and extracts the contact can be indirect. Some entries that bind do so weakly or less than the wild type.

Protein sequences, listed by entry. Tags and fused reporters are not part of them.
UniProt Q15910: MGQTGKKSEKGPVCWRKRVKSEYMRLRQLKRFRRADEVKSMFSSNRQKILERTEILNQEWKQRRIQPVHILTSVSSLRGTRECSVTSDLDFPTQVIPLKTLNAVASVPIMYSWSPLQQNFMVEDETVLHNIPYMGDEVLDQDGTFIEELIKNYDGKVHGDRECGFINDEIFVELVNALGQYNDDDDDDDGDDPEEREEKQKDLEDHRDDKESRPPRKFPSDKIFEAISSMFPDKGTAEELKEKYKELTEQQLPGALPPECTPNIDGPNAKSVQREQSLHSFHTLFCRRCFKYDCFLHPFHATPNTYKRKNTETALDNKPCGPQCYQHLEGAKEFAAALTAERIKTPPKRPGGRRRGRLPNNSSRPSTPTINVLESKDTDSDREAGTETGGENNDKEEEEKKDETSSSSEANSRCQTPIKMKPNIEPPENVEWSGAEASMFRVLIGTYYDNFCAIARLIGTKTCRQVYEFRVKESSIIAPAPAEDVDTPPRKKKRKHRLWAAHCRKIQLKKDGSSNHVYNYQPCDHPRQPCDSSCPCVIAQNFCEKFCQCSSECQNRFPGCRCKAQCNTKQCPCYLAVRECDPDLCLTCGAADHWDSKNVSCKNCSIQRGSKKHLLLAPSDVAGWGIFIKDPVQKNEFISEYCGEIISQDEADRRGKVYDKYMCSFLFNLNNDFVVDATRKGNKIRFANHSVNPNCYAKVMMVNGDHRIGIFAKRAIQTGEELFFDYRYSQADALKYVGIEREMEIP
UniProt P40763: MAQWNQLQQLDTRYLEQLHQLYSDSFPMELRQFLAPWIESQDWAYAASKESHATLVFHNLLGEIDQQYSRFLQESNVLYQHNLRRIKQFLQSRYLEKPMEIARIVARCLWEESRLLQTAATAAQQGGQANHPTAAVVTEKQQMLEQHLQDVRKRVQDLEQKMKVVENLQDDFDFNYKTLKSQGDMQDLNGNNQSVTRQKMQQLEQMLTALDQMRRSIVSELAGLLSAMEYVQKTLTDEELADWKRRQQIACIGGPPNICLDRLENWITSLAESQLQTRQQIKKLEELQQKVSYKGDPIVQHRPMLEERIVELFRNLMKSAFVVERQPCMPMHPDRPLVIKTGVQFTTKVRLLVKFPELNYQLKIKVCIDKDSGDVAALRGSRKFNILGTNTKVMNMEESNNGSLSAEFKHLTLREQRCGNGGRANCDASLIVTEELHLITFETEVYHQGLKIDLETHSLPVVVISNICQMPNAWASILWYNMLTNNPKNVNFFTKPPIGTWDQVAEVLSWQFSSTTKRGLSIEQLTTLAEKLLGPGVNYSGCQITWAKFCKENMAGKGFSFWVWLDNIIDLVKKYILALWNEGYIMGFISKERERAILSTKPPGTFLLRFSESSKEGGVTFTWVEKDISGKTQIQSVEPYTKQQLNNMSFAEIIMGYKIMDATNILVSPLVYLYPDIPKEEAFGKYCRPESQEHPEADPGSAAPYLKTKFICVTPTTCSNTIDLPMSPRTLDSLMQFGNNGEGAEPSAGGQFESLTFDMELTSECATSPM

Molecular target: EZH2 (human (endogenous in primary CD8+ T cells)) (UniProt Q15910)
Assay: co-IP; nuclear protein lysates of CD8+ T cells of healthy controls cultured with IL-6, IL-15, MCP-1 or IL-15 plus MCP-1 in RPMI1640 for 12 h; Co-IP with antibody against STAT3, DNMT1, HDAC1 or EZH2; rabbit IgG isotype control as negative control; blots with the indicated antibodies

STAT3 (from UniProt P40763 1-770)
binding: binds
